Laboratory results as given in article PMC7613270.
No constants are given. Whether binding was seen depends on the method and setting. Some binding calls cover weakened binding; strength is not graded here.

Amino acid sequences for entries named in this document (tags omitted).
UniProt O00165: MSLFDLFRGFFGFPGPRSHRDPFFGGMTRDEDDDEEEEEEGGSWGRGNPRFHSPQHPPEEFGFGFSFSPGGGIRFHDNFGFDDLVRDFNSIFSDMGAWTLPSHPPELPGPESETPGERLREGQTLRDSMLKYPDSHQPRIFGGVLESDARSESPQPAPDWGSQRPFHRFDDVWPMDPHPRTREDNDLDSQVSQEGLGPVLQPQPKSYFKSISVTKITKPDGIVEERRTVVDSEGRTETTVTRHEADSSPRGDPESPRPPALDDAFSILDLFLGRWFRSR

Target: EspO of Citrobacter rodentium ICC180, two-hybrid bait (pGBKT7) (Citrobacter rodentium ICC180) (UniProt D2TI12)
Test: two-hybrid

In the case of “HAX-1 full length, two-hybrid prey (pGADT7-HAX-1) (from UniProt O00165 1-279)”, the binding is reported as “binds”.
